Experimental data as given in patent US7045361B2, “Analyte sensing via acridine-based boronate biosensors” (Medtronic MiniMed, Inc., priority 2001, dated 2006).

Experiment: Glucose transduction of monotopic acridine-based boronate biosensor molecules by fluorescence spectroscopy
Protocol: Glucose transduction of particular acridine-based boronate bio sensor molecules was observed using fluorescence spectroscopy. Fluorescence measurements were taken on a Yorbin Fluorolog instrument. […]
Aliquots of glucose were added and responses were measured at 436 nm, or maximum intensity. (See Table 3).
Another transduction experiment was performed with ACRAB at 500 nm, or approximately 25% of the value of maximum intensity. The data taken at 500 nm generally parallel those taken at 436 nm, thus indicating no decrease in performance of the acridine-based boronate biosensor molecule at the longer wavelength. This shift of 83 nm is very significant in that it provides about a 10-fold increase of transmission of light through tissue and skin.
MEACRAB was then diluted 100-fold to 100 nM and transduction at conditions of ambient temperature. The solution contained 0.5% DMSO.

Cc1ccc2nc3ccccc3c(CN(CCCCCO)Cc3ccccc3B(O)O)c2c1 [MEACRAB, aminomethylhydroxypentyl-methylacridine boronate]
Intensity (100 nM, 0.5% DMSO, ambient temperature, 509 nm, glucose 0 mg/dL): 62 cps × 10^4
Intensity (100 nM, 0.5% DMSO, ambient temperature, 509 nm, glucose 87 mg/dL): 75 cps × 10^4
Intensity (100 nM, 0.5% DMSO, ambient temperature, 509 nm, glucose 173 mg/dL): 80 cps × 10^4
Intensity (100 nM, 0.5% DMSO, ambient temperature, 509 nm, glucose 256 mg/dL): 95 cps × 10^4
Intensity (100 nM, 0.5% DMSO, ambient temperature, 509 nm, glucose 341 mg/dL): 110 cps × 10^4
Intensity (100 nM, 0.5% DMSO, ambient temperature, 509 nm, glucose 425 mg/dL): 120 cps × 10^4
Intensity (100 nM, 0.5% DMSO, ambient temperature, 509 nm, glucose 510 mg/dL): 130 cps × 10^4
Intensity (100 nM, 0.5% DMSO, ambient temperature, 509 nm, glucose 603 mg/dL): 135 cps × 10^4
Intensity (100 nM, 0.5% DMSO, ambient temperature, 509 nm, glucose 683 mg/dL): 137 cps × 10^4
Intensity (100 nM, 0.5% DMSO, ambient temperature, 509 nm, glucose 767 mg/dL): 140 cps × 10^4
Intensity (100 nM, 0.5% DMSO, ambient temperature, 509 nm, glucose 834 mg/dL): 145 cps × 10^4
Intensity (100 nM, 0.5% DMSO, ambient temperature, 509 nm, glucose 927 mg/dL): 150 cps × 10^4
Intensity (100 nM, 0.5% DMSO, ambient temperature, 509 nm, glucose 1012 mg/dL): 160 cps × 10^4
Intensity (10 μM in PBS, 4% DMSO, 500 nm, glucose 0 mg/dL): 100 cps × 10^3
Intensity (10 μM in PBS, 4% DMSO, 500 nm, glucose 93 mg/dL): 130 cps × 10^3
Intensity (10 μM in PBS, 4% DMSO, 500 nm, glucose 184 mg/dL): 160 cps × 10^3
Intensity (10 μM in PBS, 4% DMSO, 500 nm, glucose 275 mg/dL): 200 cps × 10^3
Intensity (10 μM in PBS, 4% DMSO, 500 nm, glucose 364 mg/dL): 220 cps × 10^3
Intensity (10 μM in PBS, 4% DMSO, 500 nm, glucose 459 mg/dL): 270 cps × 10^3
Intensity (10 μM in PBS, 4% DMSO, 500 nm, glucose 547 mg/dL): 290 cps × 10^3
Intensity (10 μM in PBS, 4% DMSO, 500 nm, glucose 650 mg/dL): 320 cps × 10^3

aminomethylhydroxypentyl-acridine boronate [ACRAB]
Intensity (500 nm, glucose 0 mg/dL): 98.4 cps × 10^3
Intensity (500 nm, glucose 49 mg/dL): 109.5 cps × 10^3
Intensity (500 nm, glucose 149 mg/dL): 122.0 cps × 10^3
Intensity (500 nm, glucose 198 mg/dL): 134.8 cps × 10^3
Intensity (500 nm, glucose 284 mg/dL): 144.8 cps × 10^3
Intensity (500 nm, glucose 374 mg/dL): 153.9 cps × 10^3
Intensity (500 nm, glucose 441 mg/dL): 159.7 cps × 10^3
Intensity (500 nm, glucose 559 mg/dL): 164.7 cps × 10^3
Intensity (approx 10 μM, PBS pH 7.4, 0.5% DMSO, 436 nm, glucose 0 mg/dL): 260.2 cps × 10^3
Intensity (approx 10 μM, PBS pH 7.4, 0.5% DMSO, 436 nm, glucose 50 mg/dL): 298.7 cps × 10^3
Intensity (approx 10 μM, PBS pH 7.4, 0.5% DMSO, 436 nm, glucose 150 mg/dL): 329.5 cps × 10^3
Intensity (approx 10 μM, PBS pH 7.4, 0.5% DMSO, 436 nm, glucose 200 mg/dL): 368 cps × 10^3
Intensity (approx 10 μM, PBS pH 7.4, 0.5% DMSO, 436 nm, glucose 300 mg/dL): 384.4 cps × 10^3
